Results taken from the supplement of paper PMC10849652.
Some of the results follow.

By UniProt entry, the sequences of proteins in these tests, tags left out. Where a name states a change or a piece, a line headed by the entry shows the natural chain unless it says otherwise.
UniProt Q9UL26: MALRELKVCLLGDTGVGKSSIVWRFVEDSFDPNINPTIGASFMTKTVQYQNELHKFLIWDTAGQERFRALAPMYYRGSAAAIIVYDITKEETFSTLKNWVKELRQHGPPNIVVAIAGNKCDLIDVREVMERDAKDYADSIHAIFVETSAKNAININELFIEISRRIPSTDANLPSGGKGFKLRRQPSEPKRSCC
UniProt Q15042: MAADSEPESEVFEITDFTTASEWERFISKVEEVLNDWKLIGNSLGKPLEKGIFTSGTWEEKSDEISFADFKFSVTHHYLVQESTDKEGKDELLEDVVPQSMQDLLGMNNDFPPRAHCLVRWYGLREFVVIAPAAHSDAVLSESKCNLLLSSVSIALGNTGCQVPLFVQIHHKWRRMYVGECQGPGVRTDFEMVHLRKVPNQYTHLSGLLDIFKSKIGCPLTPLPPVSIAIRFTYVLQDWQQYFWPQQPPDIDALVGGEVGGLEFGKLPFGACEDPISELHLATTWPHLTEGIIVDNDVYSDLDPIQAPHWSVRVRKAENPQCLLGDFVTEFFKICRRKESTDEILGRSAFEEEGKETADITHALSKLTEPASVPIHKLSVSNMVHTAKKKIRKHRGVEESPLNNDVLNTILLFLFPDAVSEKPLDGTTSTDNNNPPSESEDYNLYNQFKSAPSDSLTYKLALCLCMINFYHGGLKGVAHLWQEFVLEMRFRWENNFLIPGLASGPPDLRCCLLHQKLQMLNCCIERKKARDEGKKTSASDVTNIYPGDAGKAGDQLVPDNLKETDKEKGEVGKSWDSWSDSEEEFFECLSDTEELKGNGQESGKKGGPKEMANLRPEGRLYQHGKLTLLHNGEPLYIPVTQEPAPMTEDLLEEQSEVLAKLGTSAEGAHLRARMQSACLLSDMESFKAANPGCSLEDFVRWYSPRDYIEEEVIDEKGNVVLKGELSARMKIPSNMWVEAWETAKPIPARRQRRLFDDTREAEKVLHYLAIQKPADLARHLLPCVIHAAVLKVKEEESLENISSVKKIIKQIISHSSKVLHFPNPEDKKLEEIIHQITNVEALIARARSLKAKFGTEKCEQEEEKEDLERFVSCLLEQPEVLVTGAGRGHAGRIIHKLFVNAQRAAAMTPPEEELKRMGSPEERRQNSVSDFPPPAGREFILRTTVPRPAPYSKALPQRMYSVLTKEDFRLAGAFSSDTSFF
UniProt P51153: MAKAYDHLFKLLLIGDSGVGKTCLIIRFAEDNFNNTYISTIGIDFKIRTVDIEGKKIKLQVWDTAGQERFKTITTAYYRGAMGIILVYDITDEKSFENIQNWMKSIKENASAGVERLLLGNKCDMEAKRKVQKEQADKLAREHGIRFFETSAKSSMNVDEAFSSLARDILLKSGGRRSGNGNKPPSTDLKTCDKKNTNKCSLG
UniProt P49023, whole entry, looked up: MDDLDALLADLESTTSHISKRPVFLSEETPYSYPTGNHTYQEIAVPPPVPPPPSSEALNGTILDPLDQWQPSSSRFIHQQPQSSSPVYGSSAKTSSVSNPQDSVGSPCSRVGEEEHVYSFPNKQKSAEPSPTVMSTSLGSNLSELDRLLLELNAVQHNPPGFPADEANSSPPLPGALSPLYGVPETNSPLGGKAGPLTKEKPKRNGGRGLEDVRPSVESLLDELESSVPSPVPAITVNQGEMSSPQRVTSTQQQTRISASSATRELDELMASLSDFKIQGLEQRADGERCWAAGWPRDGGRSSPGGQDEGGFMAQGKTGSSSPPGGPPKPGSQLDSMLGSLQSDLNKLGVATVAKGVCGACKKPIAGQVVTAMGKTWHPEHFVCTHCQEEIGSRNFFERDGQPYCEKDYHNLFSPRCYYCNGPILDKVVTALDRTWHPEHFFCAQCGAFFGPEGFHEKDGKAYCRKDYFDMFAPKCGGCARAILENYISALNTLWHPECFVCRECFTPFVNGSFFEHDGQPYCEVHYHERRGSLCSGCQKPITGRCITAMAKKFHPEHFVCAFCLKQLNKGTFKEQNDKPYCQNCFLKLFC
UniProt P53611: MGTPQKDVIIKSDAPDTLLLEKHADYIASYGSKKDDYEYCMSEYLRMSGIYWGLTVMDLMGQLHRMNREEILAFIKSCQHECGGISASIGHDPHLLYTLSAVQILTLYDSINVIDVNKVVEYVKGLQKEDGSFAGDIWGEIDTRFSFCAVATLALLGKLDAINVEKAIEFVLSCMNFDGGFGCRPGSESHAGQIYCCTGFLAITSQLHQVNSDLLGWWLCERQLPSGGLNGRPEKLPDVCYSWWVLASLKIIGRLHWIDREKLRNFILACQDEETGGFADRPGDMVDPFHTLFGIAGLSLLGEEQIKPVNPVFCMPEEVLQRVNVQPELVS
UniProt Q13905: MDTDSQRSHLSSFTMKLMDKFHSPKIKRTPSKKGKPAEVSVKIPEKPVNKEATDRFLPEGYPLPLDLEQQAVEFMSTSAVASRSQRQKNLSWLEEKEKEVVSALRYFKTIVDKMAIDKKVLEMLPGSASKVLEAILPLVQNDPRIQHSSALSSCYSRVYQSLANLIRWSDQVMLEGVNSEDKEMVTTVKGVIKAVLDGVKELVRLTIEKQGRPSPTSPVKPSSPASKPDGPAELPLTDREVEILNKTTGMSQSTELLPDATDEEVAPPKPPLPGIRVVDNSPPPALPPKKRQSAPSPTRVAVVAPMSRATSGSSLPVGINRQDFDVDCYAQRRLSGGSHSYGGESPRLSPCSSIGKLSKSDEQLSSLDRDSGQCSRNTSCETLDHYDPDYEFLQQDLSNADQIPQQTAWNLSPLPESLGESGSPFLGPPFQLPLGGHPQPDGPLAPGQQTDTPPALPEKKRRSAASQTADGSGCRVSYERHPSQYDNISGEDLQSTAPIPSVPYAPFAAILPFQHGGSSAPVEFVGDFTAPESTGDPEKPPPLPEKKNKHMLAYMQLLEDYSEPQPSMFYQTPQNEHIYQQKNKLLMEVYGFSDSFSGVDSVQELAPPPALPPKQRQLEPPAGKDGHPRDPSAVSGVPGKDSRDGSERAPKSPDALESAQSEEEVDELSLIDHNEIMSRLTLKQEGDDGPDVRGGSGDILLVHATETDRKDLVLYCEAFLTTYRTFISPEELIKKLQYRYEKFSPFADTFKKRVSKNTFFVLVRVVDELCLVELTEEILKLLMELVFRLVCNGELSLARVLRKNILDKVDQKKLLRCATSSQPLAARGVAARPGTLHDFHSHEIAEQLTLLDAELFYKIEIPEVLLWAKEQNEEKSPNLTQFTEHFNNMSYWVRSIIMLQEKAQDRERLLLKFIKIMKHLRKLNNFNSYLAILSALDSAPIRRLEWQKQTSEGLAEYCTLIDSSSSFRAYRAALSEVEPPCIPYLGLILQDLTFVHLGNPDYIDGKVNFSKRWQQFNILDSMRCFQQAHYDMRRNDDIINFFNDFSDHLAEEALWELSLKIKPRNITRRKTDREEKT
UniProt Q9H974: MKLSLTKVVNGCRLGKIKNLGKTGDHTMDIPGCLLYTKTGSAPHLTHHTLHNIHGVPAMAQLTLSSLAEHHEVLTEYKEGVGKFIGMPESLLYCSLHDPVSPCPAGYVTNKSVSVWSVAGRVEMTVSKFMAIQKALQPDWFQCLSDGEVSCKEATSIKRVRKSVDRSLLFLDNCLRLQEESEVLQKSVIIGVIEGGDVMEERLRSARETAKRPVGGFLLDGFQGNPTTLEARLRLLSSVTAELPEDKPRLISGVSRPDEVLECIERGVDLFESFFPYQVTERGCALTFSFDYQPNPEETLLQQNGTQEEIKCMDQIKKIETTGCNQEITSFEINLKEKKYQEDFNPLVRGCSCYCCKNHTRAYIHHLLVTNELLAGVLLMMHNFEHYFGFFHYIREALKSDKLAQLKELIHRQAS
UniProt P51148: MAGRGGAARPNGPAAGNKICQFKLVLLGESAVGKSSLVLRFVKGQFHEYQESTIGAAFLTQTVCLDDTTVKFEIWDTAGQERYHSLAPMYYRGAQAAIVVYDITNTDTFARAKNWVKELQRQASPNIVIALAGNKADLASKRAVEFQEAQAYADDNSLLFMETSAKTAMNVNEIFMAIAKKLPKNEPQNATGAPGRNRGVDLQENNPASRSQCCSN
UniProt Q86X10: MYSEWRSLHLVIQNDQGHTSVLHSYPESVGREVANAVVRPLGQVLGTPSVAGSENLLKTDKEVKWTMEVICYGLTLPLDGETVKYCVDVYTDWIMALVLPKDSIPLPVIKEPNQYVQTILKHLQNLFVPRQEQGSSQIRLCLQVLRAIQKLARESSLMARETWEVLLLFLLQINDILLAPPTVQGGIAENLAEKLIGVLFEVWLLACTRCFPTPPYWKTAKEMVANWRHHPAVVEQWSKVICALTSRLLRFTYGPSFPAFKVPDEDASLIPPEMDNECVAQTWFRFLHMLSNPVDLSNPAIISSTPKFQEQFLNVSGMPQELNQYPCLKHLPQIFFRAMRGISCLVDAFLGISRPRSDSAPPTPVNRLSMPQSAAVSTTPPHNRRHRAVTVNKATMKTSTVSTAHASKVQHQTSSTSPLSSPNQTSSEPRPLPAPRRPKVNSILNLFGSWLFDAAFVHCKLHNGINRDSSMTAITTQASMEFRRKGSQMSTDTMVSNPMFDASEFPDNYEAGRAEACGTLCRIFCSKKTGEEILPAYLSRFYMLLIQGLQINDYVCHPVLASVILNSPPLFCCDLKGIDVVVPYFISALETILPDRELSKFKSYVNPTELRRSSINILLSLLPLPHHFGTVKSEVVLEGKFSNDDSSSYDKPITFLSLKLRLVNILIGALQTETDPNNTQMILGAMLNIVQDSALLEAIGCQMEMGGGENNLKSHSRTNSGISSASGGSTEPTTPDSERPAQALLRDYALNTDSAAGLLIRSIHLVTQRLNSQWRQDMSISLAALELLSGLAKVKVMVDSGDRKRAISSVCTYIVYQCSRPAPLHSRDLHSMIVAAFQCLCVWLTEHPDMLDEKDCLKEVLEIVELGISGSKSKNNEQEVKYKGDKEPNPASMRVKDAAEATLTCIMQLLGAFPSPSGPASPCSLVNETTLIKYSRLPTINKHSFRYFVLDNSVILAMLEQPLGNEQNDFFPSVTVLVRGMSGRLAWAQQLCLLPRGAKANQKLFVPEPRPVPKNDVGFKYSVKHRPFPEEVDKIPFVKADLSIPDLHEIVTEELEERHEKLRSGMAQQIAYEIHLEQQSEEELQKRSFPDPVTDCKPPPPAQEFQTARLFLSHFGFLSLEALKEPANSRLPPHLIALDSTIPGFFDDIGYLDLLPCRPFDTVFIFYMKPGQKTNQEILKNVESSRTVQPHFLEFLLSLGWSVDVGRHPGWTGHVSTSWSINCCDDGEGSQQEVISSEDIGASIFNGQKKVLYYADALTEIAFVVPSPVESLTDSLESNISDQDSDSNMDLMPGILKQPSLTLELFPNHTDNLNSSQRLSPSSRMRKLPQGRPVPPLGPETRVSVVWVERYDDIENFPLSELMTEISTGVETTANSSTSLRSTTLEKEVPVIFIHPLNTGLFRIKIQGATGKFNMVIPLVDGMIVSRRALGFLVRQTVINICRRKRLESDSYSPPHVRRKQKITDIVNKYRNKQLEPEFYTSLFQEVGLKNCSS
UniProt Q53S08: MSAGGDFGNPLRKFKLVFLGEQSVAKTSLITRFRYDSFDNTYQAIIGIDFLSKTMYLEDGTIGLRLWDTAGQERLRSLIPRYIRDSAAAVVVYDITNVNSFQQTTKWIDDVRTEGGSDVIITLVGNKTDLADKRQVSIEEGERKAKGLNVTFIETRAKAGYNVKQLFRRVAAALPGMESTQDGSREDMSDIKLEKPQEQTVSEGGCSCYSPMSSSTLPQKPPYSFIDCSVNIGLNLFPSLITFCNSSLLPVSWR
UniProt Q99638: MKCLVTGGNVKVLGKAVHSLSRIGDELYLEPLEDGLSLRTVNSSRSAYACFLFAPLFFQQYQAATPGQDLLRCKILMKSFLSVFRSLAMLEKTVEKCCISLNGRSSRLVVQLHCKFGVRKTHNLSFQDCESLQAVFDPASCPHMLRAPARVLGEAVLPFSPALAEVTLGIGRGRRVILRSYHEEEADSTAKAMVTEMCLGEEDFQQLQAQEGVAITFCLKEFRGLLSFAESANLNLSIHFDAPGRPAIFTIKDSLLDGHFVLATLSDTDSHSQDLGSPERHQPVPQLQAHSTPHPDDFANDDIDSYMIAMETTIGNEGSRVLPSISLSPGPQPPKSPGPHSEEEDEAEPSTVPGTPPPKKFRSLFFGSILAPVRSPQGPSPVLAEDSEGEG
UniProt Q9ULZ3, whole entry, looked up: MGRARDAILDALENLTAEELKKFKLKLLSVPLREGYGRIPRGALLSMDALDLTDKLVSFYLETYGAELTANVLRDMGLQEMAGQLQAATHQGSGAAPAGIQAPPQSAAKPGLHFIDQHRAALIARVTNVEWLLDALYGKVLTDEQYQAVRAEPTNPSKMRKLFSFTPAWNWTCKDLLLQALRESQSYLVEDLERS
UniProt P61018: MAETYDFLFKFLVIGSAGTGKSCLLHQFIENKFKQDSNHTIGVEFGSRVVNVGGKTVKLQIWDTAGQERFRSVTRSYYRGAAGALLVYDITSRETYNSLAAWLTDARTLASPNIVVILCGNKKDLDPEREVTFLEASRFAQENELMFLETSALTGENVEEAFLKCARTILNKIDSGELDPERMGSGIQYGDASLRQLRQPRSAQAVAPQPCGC

Legend:
Test in all cases: log2 fold change, soluble protein after heating vs DMSO (PISA); higher = thermal stabilisation; K562 lysate, 10 uM; active = over 0.2 and 3.5 SD of the protein, either way, in both replicates (recomputed)
erlotinib = compound: C#Cc1cccc(Nc2ncnc3cc(OCCOC)c(OCCOC)cc23)c1 [erlotinib]
How it was run: (§1)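 Dounce homogenisation of K562 pellets in PBS pH 7.4 with 1 mM MgCl2 produced a crude extract, used at 1 mg/mL protein. Exposure to 10 μM compound lasted 30 min, and aliquots were then heated for 3 min across 48°C-58°C, pooled and brought to 0.5% NP-40 at 4°C. The supernatant after 21,000xg for 90 min was quantified by TMTpro 16plex LC-MS/MS with channel sums equalised. Duplicate values are given as log-two fold change in thermal stability relative to solvent controls.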

[1] = compound: C/C(=N\NC(=O)C1=CC(=CC=C1)S(=O)(=O)N2CCOCC2)/C3=C(C=CC(=C3)Cl)O
How it was run: as §1

[2] = compound: C1=CC(=CC=C1C2=NC3=C(N2)C=C(C=C3)C(=O)N)OC4=CC=C(C=C4)Cl
How it was run: as §1

[3] = compound: C1=CC2=C(C=CC(=C2)/C=C\3/C(=O)NC(=NCC4=CC=CS4)S3)N=C1
How it was run: as §1

[4] = compound: C1=CC2=NC=CN=C2C=C1/C=C/3\C(=O)NC(=O)S3
How it was run: as §1

[5] = compound: C1=CC=C(C=C1)C2=NC(=C(N2)C3=CC=NC=C3)C4=CC(=C(C=C4)Cl)O
How it was run: as §1

[6] = compound: C1=CC=C2C(=C1)C3=NNC4=CC=CC(=C43)C2=O
How it was run: as §1

[7] = compound: C1CCN(C1)C(=O)NC2=CC=CC(=C2)NC3=NC=C(C(=N3)NCCC4=CN=CN4)Br
How it was run: as §1

[8] = compound: C1CN(CCC1(CC2=CC=C(C=C2)Cl)N)C3=NC=NC4=C3C=CN4
How it was run: as §1

IRAK-1-4 Inhibitor I = compound: C1COCCN1CCN2C3=CC=CC=C3N=C2NC(=O)C4=CC(=CC=C4)[N+](=O)[O-] [IRAK-1-4 Inhibitor I]
How it was run: as §1

ibrutinib = compound: C=CC(=O)N1CCC[C@@H](n2nc(-c3ccc(Oc4ccccc4)cc3)c3c(N)ncnc32)C1 [ibrutinib]
How it was run: as §1

[9] = compound: CC(=O)c1cnc2ccc(-c3cc(Cl)c(O)c(Cl)c3)nc2c1N[C@H]1CC[C@H](CN(C)C)CC1
How it was run: as §1

ralimetinib = compound: CC(C)(C)Cn1c(N)nc2ccc(-c3[nH]c(C(C)(C)C)nc3-c3ccc(F)cc3)nc21 [ralimetinib]
How it was run: as §1

[10] = compound: CC(C)(O)CC(=O)NCCn1ccc2ncnc(Nc3ccc(Oc4cccc(C(F)(F)F)c4)c(Cl)c3)c21
How it was run: as §1

[11] = compound: CC(C)C1=C2N=C(C=C(N2N=C1)NCC3=CC=CC=C3)NCCCCCCN
How it was run: as §1

[12] = compound: CC1=C(C(CC(=O)N1)C2=CC=C(C=C2)C(F)(F)F)C(=O)NC3=C(C=C4C(=C3)C=NN4)F
How it was run: as §1

[13] = compound: CC1=C(C2=C(C=C1)C(=O)C3=CC=CC=C3N2CCCN)C
How it was run: as §1

[14] = compound: CC1=C(C=C(C=C1)NC(=O)C2=CC(=CC=C2)C(C)(C)C#N)NC3=CC4=C(C=C3)N=CN(C4=O)C
How it was run: as §1

[15] = compound: CC1=C(C=C(C=C1)NC(=O)C2=CC(=CC=C2)N(C)C)NC(=O)C3=CC=C(C=C3)O
How it was run: as §1

[16] = compound: CC1=CC=C(C=C1)SC2=C3C=C(SC3=CN=C2)C(=O)N
How it was run: as §1

Measured: log2 fold change

PXK (UniProt Q7Z7A4)
inactive: erlotinib 0.044 | [1] 0.042 | [2] 0.023 | [3] 0.04 | [4] 0.005 | [5] 0.022 | [6] -0.05 | [7] -0.008 | [8] 0.006 | IRAK-1-4 Inhibitor I -0.018 | ibrutinib -0.024 | [9] 0 | ralimetinib 0.042 | [10] -0.002 | [11] -0.053 | [12] -0.019 | [13] -0.044 | [14] 0.008 | [15] -0.008 | [16] 0.009

RAB22A (UniProt Q9UL26)
inactive: erlotinib -0.02 | [1] 0.035 | [2] 0.022 | [3] 0.004 | [4] -0.012 | [5] -0.041 | [6] -0.023 | [7] 0.011 | [8] 0.013 | IRAK-1-4 Inhibitor I 0.019 | ibrutinib 0.02 | [9] -0.081 | ralimetinib 0.022 | [10] -0.023 | [11] -0.021 | [12] 0.055 | [13] -0.055 | [14] -0.007 | [15] -0.026 | [16] 0.13

RAB3GAP1 (UniProt Q15042)
inactive: erlotinib 0.013 | [1] -0.049 | [2] -0.007 | [3] 0.016 | [4] 0.005 | [5] 0.011 | [6] -0.034 | [7] -0.006 | [8] -0.016 | IRAK-1-4 Inhibitor I -0.006 | ibrutinib 0.001 | [9] -0.011 | ralimetinib 0.024 | [10] -0.003 | [11] 0.013 | [12] -0.011 | [13] 0 | [14] 0.01 | [15] 0.005 | [16] -0.006

RAB13 (UniProt P51153)
inactive: erlotinib -0.064 | [1] -0.01 | [2] -0.04 | [3] -0.008 | [4] -0.017 | [5] -0.051 | [6] 0.048 | [7] -0.01 | [8] -0.137 | IRAK-1-4 Inhibitor I -0.079 | ibrutinib 0.017 | [9] 0.114 | ralimetinib 0.065 | [10] 0.091 | [11] -0.02 | [12] 0 | [13] 0.05 | [14] -0.223 | [15] 0.002 | [16] 0.085

PXN isoform 3 (UniProt P49023)
inactive: erlotinib 0.021 | [1] -0.038 | [2] 0.041 | [3] 0.013 | [4] 0.007 | [5] 0.014 | [6] 0.028 | [7] -0.058 | [8] 0.025 | IRAK-1-4 Inhibitor I -0.004 | ibrutinib 0.044 | [9] -0.001 | ralimetinib 0.013 | [10] 0.002 | [11] -0.011 | [12] -0.003 | [13] -0.008 | [14] 0.094 | [15] -0.006 | [16] -0.048

RAB3IL1 (UniProt Q8TBN0)
inactive: erlotinib -0.026 | [1] 0.005 | [2] -0.021 | [3] 0.024 | [4] -0.05 | [5] 0.053 | [6] -0.038 | [7] -0.013 | [8] -0.003 | IRAK-1-4 Inhibitor I 0.011 | ibrutinib 0.03 | [9] -0.035 | ralimetinib 0.021 | [10] -0.022 | [11] 0.004 | [12] 0.116 | [13] -0.006 | [14] 0.02 | [15] -0.024 | [16] 0.003

RABGGTB (UniProt P53611)
inactive: erlotinib 0.01 | [1] 0.026 | [2] -0.015 | [3] 0.021 | [4] 0.04 | [5] -0.023 | [6] -0.093 | [7] -0.029 | [8] 0.003 | IRAK-1-4 Inhibitor I 0.03 | ibrutinib -0.017 | [9] -0.042 | ralimetinib 0.018 | [10] -0.052 | [11] 0.015 | [12] -0.002 | [13] -0.006 | [14] -0.013 | [15] 0.048 | [16] 0.013

PYCR1 (UniProt J3QKT4)
inactive: erlotinib 0.281 | [1] -0.048 | [2] 0.05 | [3] 0.04 | [4] -0.094 | [5] 0.074 | [6] -0.558 | [7] -0.15 | [8] -0.029 | IRAK-1-4 Inhibitor I 0.016 | ibrutinib 0.034 | [9] 0.007 | ralimetinib -0.058 | [10] -0.063 | [11] -0.006 | [12] -0.183 | [13] -0.145 | [14] -0.075 | [15] 0.015 | [16] -0.108

RAPGEF1 isoform 3 (UniProt Q13905)
inactive: erlotinib 0.017 | [1] -0.054 | [2] -0.028 | [3] -0.038 | [4] 0.003 | [5] -0.026 | [6] 0.082 | [7] -0.051 | [8] -0.02 | IRAK-1-4 Inhibitor I 0.02 | ibrutinib 0.008 | [9] -0.011 | ralimetinib -0.055 | [10] 0.018 | [11] -0.066 | [12] -0.059 | [13] 0.007 | [14] -0.059 | [15] 0.079 | [16] -0.019

QTRT2 isoform 4 (UniProt Q9H974)
inactive: erlotinib -0.024 | [1] 0.082 | [2] -0.032 | [3] -0.019 | [4] -0.048 | [5] -0.009 | [6] -0.007 | [7] 0.007 | [8] 0.022 | IRAK-1-4 Inhibitor I 0.006 | ibrutinib 0.01 | [9] 0.002 | ralimetinib 0.014 | [10] -0.028 | [11] -0.014 | [12] -0.035 | [13] 0.006 | [14] -0.025 | [15] -0.003 | [16] -0.013

RAB5C isoform 2 (UniProt P51148)
inactive: erlotinib -0.023 | [1] -0.022 | [2] 0.031 | [3] 0 | [4] -0.006 | [5] 0.005 | [6] -0.026 | [7] 0.02 | [8] 0.01 | IRAK-1-4 Inhibitor I 0.021 | ibrutinib -0.007 | [9] 0.014 | ralimetinib 0.018 | [10] -0.04 | [11] 0.004 | [12] 0.01 | [13] -0.004 | [14] -0.002 | [15] -0.009 | [16] 0.026

RALGAPB (UniProt Q86X10)
inactive: erlotinib 0.024 | [1] -0.047 | [2] 0.051 | [3] 0.018 | [4] 0 | [5] -0.038 | [6] -0.074 | [7] -0.008 | [8] 0.049 | IRAK-1-4 Inhibitor I 0.033 | ibrutinib 0.066 | [9] -0.002 | ralimetinib 0.033 | [10] -0.038 | [11] 0.003 | [12] -0.048 | [13] 0.029 | [14] 0.065 | [15] 0.032 | [16] 0.01

RAB6D (UniProt Q53S08)
inactive: erlotinib 0.027 | [1] -0.071 | [2] 0.054 | [3] -0.025 | [4] -0.048 | [5] -0.019 | [6] 0.044 | [7] -0.038 | [8] 0.157 | IRAK-1-4 Inhibitor I 0.003 | ibrutinib 0 | [9] 0.013 | ralimetinib -0.011 | [10] -0.087 | [11] 0.014 | [12] -0.113 | [13] -0.057 | [14] 0.009 | [15] 0.009 | [16] -0.026

Fetched one by one from above, two records:
RAPGEF1 isoform 3 (UniProt Q13905)
inactive: erlotinib 0.017 | [1] -0.054 | [2] -0.028 | [3] -0.038 | [4] 0.003 | [5] -0.026 | [6] 0.082 | [7] -0.051 | [8] -0.02 | IRAK-1-4 Inhibitor I 0.02 | ibrutinib 0.008 | [9] -0.011 | ralimetinib -0.055 | [10] 0.018 | [11] -0.066 | [12] -0.059 | [13] 0.007 | [14] -0.059 | [15] 0.079 | [16] -0.019

QTRT2 isoform 4 (UniProt Q9H974)
inactive: erlotinib -0.024 | [1] 0.082 | [2] -0.032 | [3] -0.019 | [4] -0.048 | [5] -0.009 | [6] -0.007 | [7] 0.007 | [8] 0.022 | IRAK-1-4 Inhibitor I 0.006 | ibrutinib 0.01 | [9] 0.002 | ralimetinib 0.014 | [10] -0.028 | [11] -0.014 | [12] -0.035 | [13] 0.006 | [14] -0.025 | [15] -0.003 | [16] -0.013

Following part:

RAD9A (UniProt Q99638)
inactive: erlotinib -0.004 | [1] -0.065 | [2] -0.018 | [3] 0.026 | [4] 0.011 | [5] 0.017 | [6] -0.025 | [7] 0.034 | [8] 0.035 | IRAK-1-4 Inhibitor I -0.012 | ibrutinib 0.027 | [9] -0.004 | ralimetinib 0.062 | [10] -0.04 | [11] -0.025 | [12] -0.054 | [13] -0.042 | [14] 0.018 | [15] 0.006 | [16] -0.005

PYCARD (UniProt Q9ULZ3)
inactive: erlotinib 0.013 | [1] -0.013 | [2] 0.004 | [3] 0.004 | [4] -0.007 | [5] 0.016 | [6] -0.007 | [7] 0.014 | [8] 0.009 | IRAK-1-4 Inhibitor I 0.003 | ibrutinib 0.091 | [9] -0.007 | ralimetinib -0.005 | [10] -0.005 | [11] -0.007 | [12] 0 | [13] -0.019 | [14] -0.019 | [15] 0.007 | [16] -0.019

RAB4B isoform 2 (UniProt P61018)
inactive: erlotinib -0.026 | [1] -0.003 | [2] -0.007 | [3] -0.036 | [4] -0.044 | [5] 0.022 | [6] -0.013 | [7] -0.013 | [8] -0.021 | IRAK-1-4 Inhibitor I -0.012 | ibrutinib 0.091 | [9] 0.007 | ralimetinib 0.007 | [10] -0.019 | [11] -0.035 | [12] 0.048 | [13] 0.034 | [14] -0.001 | [15] -0.061 | [16] 0.005
